Data as given in PMC7072741.
These are yes or no findings as the source states them, for the method shown. Binding seen in cells or lysates may run through a third protein. Some binding calls cover weakened binding; strength is not graded here. Where a sequence is shown, tags or fusion partners need not be part of it.

By UniProt entry, the sequences of proteins in these tests, tags left out. Where a name states a change or a piece, a line headed by the entry shows the natural chain unless it says otherwise.
UniProt P31749: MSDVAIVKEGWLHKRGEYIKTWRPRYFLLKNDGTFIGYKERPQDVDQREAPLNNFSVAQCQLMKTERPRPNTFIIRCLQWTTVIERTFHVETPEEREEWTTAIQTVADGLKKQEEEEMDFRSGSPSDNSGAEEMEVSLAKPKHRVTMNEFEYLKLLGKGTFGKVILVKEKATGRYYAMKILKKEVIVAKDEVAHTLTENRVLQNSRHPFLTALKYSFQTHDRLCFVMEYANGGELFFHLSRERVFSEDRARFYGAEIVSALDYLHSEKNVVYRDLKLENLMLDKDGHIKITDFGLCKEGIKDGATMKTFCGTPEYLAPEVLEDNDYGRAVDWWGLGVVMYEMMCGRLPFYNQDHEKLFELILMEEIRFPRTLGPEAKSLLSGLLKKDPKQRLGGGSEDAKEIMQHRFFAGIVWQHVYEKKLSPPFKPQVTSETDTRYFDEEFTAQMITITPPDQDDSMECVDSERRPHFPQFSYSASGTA

Assays:
Assay in all cases: pull-down; GST-LASP1 forms (WT, pre-phosphorylated, ΔSH3, ΔLIM) as bait with lysates of HEK-293 cells transfected with AKT1 constructs; AKT1 detected by Western blot; only the target purified
[1] = molecular target: T1, GST-LASP1-ΔSH3 (aa 1-190) (human) (UniProt Q14847)
T1 sequence: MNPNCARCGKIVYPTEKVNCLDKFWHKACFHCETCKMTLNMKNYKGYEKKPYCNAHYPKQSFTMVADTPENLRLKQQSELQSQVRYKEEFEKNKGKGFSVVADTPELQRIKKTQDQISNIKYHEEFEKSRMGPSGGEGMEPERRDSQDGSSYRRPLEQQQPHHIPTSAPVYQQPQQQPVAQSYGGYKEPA

[2] = molecular target: T2, GST-LASP1-ΔLIM (aa 64-261) (human) (UniProt Q14847)
T2 sequence: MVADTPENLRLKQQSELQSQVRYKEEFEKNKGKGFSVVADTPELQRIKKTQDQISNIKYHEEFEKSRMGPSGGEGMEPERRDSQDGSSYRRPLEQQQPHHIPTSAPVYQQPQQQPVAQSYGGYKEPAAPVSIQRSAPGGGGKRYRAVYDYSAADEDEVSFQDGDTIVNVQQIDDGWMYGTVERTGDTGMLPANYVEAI

GST-LASP1-WT (human) = molecular target: T3, GST-LASP1-WT (human) (UniProt Q14847)
T3 sequence: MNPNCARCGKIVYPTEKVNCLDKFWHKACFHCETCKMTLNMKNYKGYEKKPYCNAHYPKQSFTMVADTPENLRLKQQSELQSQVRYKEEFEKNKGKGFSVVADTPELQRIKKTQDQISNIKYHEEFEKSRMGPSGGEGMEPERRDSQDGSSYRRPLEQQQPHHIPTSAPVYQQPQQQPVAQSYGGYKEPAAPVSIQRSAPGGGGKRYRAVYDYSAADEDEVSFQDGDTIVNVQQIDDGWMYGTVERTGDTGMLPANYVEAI

binding [1]	binding [2]	binding (GST-LASP1-WT (human))	Substance
binds	binds		HA-AKT1 full length (AKT1-WT, aa 1-480) (from UniProt P31749 1-480)
		binds	HA-AKT1-K420S (from UniProt P31749 1-480)
		binds	HA-AKT1-R465S (from UniProt P31749 1-480)
		binds	HA-AKT1-K426S (from UniProt P31749 1-480)
